Data as given in patent publication US20120149028A1 (LUDWIG MAXIMILIANS UNIVERSITAT M NCHEN, published 2012).

Molecular target: RFP-PCNA
Assay: co-expression in HeLa cells, epifluorescence microscopy

binding: binds
B1: Chromobody PCNA3p16-GFP (VHH)
VHH: QVQLVESGGGLVQPGGSLRLSCAASGFTFSSYAMSWVRQAPGKGLEWVSDISPSGAVKAYSDSVKGRFTISRDNAKNRLYLQMNSLTPEDTGEYFCTKVQSPRTRIPAPSSQGTQVTVSS

No constants are given. Whether binding was seen depends on the method and setting. Binding can be weak; no strength is given. Where a sequence is shown, tags or fusion partners need not be part of it.
